The chains behind the UniProt entries cited, without tags or fusion partners. Residues count along the entry.
UniProt Q5VWK5, 24-629: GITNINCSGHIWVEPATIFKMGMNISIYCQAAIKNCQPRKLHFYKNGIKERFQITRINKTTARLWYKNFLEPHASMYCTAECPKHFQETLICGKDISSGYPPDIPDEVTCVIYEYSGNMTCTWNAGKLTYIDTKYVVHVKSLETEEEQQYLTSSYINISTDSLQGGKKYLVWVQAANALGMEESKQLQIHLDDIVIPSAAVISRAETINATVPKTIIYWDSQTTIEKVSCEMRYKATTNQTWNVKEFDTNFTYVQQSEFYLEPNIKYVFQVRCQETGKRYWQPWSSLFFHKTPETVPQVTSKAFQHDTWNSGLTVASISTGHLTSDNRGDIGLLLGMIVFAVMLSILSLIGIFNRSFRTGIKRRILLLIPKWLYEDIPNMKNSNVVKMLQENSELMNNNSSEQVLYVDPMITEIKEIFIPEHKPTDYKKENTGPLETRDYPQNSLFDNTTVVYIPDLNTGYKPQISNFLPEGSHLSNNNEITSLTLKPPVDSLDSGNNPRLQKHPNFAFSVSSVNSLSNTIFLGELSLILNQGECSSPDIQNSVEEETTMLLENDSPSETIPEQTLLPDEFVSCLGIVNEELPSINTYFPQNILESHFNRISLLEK

According to publication PMC10199020 (Nature Communications, 2023):

Columns and labels:
[1] = target: T1, NL-IL23R and IL12Rβ1 (IL-23 receptor) on HEK293T cells (Homo sapiens, UniProt P42701+Q5VWK5); assay: IL23-TMR NanoBRET competition assay; assay type: binding; conditions: for BRET ratio (Mean): Fig. 4b; for IC50: P630 IC50 (Mean), Fig. 4d
T1 construct: expressed in transfected cells; host or cells: HEK293T (ATCC CRL-3216), transient transfection
Method: Schematic created with Biorender.com. IL23R is shown in orange, IL12Rβ1 in purple, IL23p19 in blue, IL12p40 in green and the presence of a TAMRA fluorophore by a pink star. […] In b and c, data are mean ± SEM from 5 independent experiments conducted in either duplicate or triplicate. Details on absolute number of data points included for each concentration are provided in the associated Source Data file.
(§1) Transient transfections for experiments outlined in Fig. 6 were conducted by seeding 100 μL of 2 × 10^5 cells/ml concentrated HEK293T cells into poly-D-lysine (PDL) coated white 96 well clear bottom assay microplates (Greiner) and incubating overnight. The following day transfection mixes were made up that contained a 4:1 ratio of IL23R to IL12Rβ1 constructs to a total concentration of 100 ng per well with a 0.3 μL per well of FuGENE HD transfection reagent (Promega) in OptiMEM (Gibco). These mixtures were incubated for 10 min before being added to the plate at 5 μL per well. The cells were then incubated overnight to allow expression. For all other experiments 2 mL containing 4 × 10^5 cells were seeded into 6 well plates and incubated 5 h before being transiently transfected with 100 μL per well of a transfection mix containing 2 μg of DNA and 6 μL of FuGENE HD. These cells were then incubated overnight before being re-suspended the following day and seeded into PDL coated white assay microplates at 100 μL containing 3 × 10^4 transfected cells. Cells were then incubated overnight before the experiment. Estimates of total expression levels for the different NL-constructs were made by comparing the luminescence levels achieved to that of a NanoLuciferase standard curve measured under the same conditions (Supplementary Fig. 1).
Media was removed from white 96-well microplates containing transfected cells and replaced with fluoroprobe in the presence or absence of antagonist in 50 μL Hanks Balanced Salt Solution (HBSS) with 1 mg/mL BSA (Merck).
Antagonist competition data were fit with the equation:4 Y=Bmin+Bmax−Bmin/1+10^(LogXC50−[A])C Where ‘Bmax’ is the maximum BRET signal, ‘Bmin’ is the minimum BRET signal, ‘LogXC50’ is the log of the 50% inhibiting concentration of antagonist, ‘[A]’ is the concentration of antagonist and ‘C’ is the Hill slope.

[2] = target: T1, NL-IL23R and IL12Rβ1 (IL-23 receptor) on HEK293T cells; assay: P630-TMR NanoBRET competition assay; assay type: binding
Method: as §1, with “1). […]” for “1).”

[3] = target: HiBit-IL23R and LgBit-IL12Rβ1 (Homo sapiens, UniProt Q5VWK5); conditions: Fig. 3c; 10 μM Peptide 630; Exp 1-5
From the text: Finally, we utilised a NanoBiT BRET system in which a complemented luciferase with fragments bound to both receptor subunits (Fig. 3) can be used as a BRET donor to measure interactions with binary receptor complexes.
Data in b are mean ± SEM from three independent experiments. In each individual experiment, triplicate determinations were made for total binding and duplicate or triplicate determinations made for non-specific binding. Data in c are the mean values obtained in five independent experiments, each conducted with six replicates. […] Data in d are the mean ± SEM from five (NL-IL23R and NL-23R + IL12Rβ1) or three (HiBit-IL23R + LgBit-IL12Rβ1) independent experiments. Source data are provided as a Source Data file.

## COc1ccc(C[C@H](NC(=O)[C@H]2NC(=O)[C@H](CCC(N)=O)NC(=O)[C@H](Cc3c[nH]c4ccccc34)NC(=O)[C@H]([C@@H](C)O)NC(=O)[C@H](CC(N)=O)NC(=O)[C@@H](NC(C)=O)C(C)(C)SSC2(C)C)C(=O)N[C@@H](Cc2ccc3ccccc3c2)C(=O)NC(C)(C)C(=O)N[C@@H](CCC(=O)O)C(=O)N[C@@H](CC(N)=O)C(=O)N[C@@H](CC(N)=O)C(N)=O)cc1 [P630]
[1]; 300 pM IL23-TMR, [P630] -8.43136 logM
  Inhibition of IL23-TMR binding (Mean): -2.658
[1]; 600 pM IL23-TMR, [P630] -8.699 logM
  BRET ratio (Mean): 0.2942
[1]; 600 pM IL23-TMR, [P630] -10.699 logM
  BRET ratio (Mean): 0.2935
[1]; 2000 pM IL23-TMR, [P630] -11.699 logM
  BRET ratio (Mean): 0.2936
[1]; Ki, IL23-TMR competition, NL-IL23R and IL12Rβ1, mean ± SEM
  Ki: 21.8 ± 3.4 nM
[1]; Mean P630 Ki, multiple concentrations of IL23-TMR, ± SEM, n = 25
  Ki: 38 ± 9 nM
[1]; [IL23-TMR] 0.1 nM
  IC50: 294 nM
[1]; [IL23-TMR] 0.6 nM
  IC50: 738 nM
[1]; [IL23-TMR] 1 nM
  IC50: 843 nM
[1]; [IL23-TMR] 2 nM
  IC50: 2540 nM
[2]
  Ki: 6.32 ± 1.06 nM
[3]
  Luminescence counts (Mean per experiment): 21827
